Experimental findings from patent US6160202 are described below.

For the data set, the system named is T1, ROM1 (PvbZIP1, PvSF1) (Phaseolus vulgaris).
T1 sequence (limits assumed): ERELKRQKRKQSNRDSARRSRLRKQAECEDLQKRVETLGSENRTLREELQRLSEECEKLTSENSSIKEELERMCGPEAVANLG
The data set is described as follows: footprint. Conditions: bZIP1 produced only weak footprints on UAS1; purified recombinant protein; protein details: His6, E. coli, pET15b, Ni-agarose.

A weaker result is weaker than the reference pair of the same experiment. Protein sequences can lack the tags named with them.

Take “GCGTGTCAT (double strand) [phaseolin site C]”: the binding result is “binds more weakly”.
